Laboratory results published in publication PMC11874553.
These are yes or no findings as the source states them, for the method shown. In cells and extracts the contact can be indirect. Some entries that bind do so weakly or less than the wild type.

Protein sequences, listed by entry. Tags and fused reporters are not part of them.
UniProt Q96P20: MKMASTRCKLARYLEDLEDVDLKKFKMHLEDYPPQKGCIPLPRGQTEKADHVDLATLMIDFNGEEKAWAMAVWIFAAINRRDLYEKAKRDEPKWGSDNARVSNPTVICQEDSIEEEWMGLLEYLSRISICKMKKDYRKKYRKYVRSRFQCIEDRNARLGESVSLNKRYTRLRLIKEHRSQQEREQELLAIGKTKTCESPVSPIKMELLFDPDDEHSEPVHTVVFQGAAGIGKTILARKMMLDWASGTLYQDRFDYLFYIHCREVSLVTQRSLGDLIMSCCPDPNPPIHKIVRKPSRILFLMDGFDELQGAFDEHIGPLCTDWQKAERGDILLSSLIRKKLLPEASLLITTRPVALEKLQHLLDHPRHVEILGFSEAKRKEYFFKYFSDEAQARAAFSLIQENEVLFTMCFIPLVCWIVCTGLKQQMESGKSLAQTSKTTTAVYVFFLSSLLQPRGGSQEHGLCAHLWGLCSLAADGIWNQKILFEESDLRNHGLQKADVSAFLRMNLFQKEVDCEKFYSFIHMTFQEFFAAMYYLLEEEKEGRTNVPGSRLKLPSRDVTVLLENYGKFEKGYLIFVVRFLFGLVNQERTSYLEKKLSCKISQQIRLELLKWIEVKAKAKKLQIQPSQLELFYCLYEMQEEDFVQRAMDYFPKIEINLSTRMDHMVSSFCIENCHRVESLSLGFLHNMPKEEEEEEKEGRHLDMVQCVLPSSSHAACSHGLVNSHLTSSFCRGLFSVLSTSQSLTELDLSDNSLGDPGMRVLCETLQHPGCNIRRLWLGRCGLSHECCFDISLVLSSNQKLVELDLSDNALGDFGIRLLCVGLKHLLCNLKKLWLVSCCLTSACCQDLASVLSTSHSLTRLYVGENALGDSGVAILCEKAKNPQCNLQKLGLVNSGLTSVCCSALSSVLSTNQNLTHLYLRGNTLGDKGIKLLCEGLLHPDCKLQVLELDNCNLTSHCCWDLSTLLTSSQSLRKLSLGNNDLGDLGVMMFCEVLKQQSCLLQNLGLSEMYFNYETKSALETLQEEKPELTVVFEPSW

Target: NLRP3 (human (endogenous in HNE-2)) (UniProt Q96P20)
Assay: co-IP; total protein from HNE-2 cells incubated overnight at 4 °C with IgG and specific antibodies; protein A/G PLUS-agarose beads 6 h at 4 °C; Western blot with anti-TMEM71 and anti-NLRP3

binding: binds
B1: TMEM71 (protein, UniProt Q6P5X7 1-295)
chain: MYRISQLMSTPVASSSRLEREYAGELSPTCIFPSFTCDSLDGYHSFECGSIDPLTGSHYTCRRSPRLLTNGYYIWTEDSFLCDKDGNITLNPSQTSVMYKENLVRIFRKKKRICHSFSSLFNLSTSKSWLHGSIFGDINSSPSEDNWLKGTRRLDTDHCNGNADDLDCSSLTDDWESGKMNAESVITSSSSHIISQPPGGNSHSLSLQSQLTASERFQENSSDHSETRLLQEVFFQAILLAVCLIISACARWFMGEILASVFTCSLMITVAYVKSLFLSLASYFKTTACARFVKI
